The list shows a part of the results. Single values are uncertain, as repeats are few or missing.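 The apoptosis fraction was the count of cleaved-PARP antibody-stained nuclei relative to all DNA-stained nuclei, imaged in 1,536-well plates. Screening doses were set so most cells survived, and baseline and induced cleaved-PARP levels vary greatly across cell lines.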

For the first experiment, the system named is A101D. In words: cleaved PARP positive nuclei fraction relative to DMSO control; melanoma cells; higher = more apoptosis. The note with it: library dose: low library concentration; 72 h.
On to `CC(C)C[C@H](NC(=O)[C@H](Cc1ccccc1)NC(=O)c1cnccn1)B(O)O` [Bortezomib] + O=C(O)c1ccc(-c2c[nH]c3ncc(-c4ccccc4)cc23)cc1C1CCCC1 [GSK650394] (first compound 0.001 µM, partner dose 0.16 µM), for which the “cleaved PARP positive nuclei fraction” value was 784%.
The same measure, in the same setting: then `C[C@@H](Oc1cc(-c2cnn(C3CCNCC3)c2)cnc1N)c1c(Cl)ccc(F)c1Cl` [Crizotinib] + C[C@@H]1CCN(C(=O)CC#N)C[C@@H]1N(C)c1ncnc2[nH]ccc12 [CP690550] (first compound 0.2 µM, partner dose 1 µM), with 79.9%; and `CC(C)C[C@H](NC(=O)[C@H](Cc1ccccc1)NC(=O)c1cnccn1)B(O)O` [Bortezomib] + Cc1cc(N2CCOCC2)cc2[nH]c(-c3c(NC[C@@H](O)c4cccc(Cl)c4)cc[nH]c3=O)nc12 [BMS536924] (first compound 0.001 µM, partner dose 0.2 µM), with 292%; and `Nc1ccn([C@@H]2O[C@H](CO)[C@@H](O)C2(F)F)c(=O)n1` [gemcitabine] + CC(C)(C)c1cnc(CSc2cnc(NC(=O)C3CCNCC3)s2)o1 [SNS-032] (first compound 0.0004 µM, partner dose 0.01 µM), with 165%.
The same measure, in the same setting: then `CCCS(=O)(=O)Nc1ccc(F)c(C(=O)c2c[nH]c3ncc(Cl)cc23)c1F` + C=CCn1c(=O)c2cnc(Nc3ccc(N4CCN(C)CC4)cc3)nc2n1-c1cccc(C(C)(C)O)n1 [MK1775] (first compound 0.08 µM, partner dose 0.02 µM), with 55.3%; and `Nc1ccn([C@@H]2O[C@H](CO)[C@@H](O)C2(F)F)c(=O)n1` [gemcitabine] + CC1(C)NC(=O)N(c2ccc([N+](=O)[O-])c(C(F)(F)F)c2)C1=O [nilutamide] (first compound 0.0004 µM, partner dose 1 µM), with 72.7%.
On the same count and under the same terms, then `CC(C)C[C@H](NC(=O)[C@H](Cc1ccccc1)NC(=O)c1cnccn1)B(O)O` [Bortezomib] + Cc1ccc(NC(=O)c2cccc(N(C)C)c2)cc1NC(=O)c1ccc(O)cc1 [ZM336372] (first compound 0.001 µM, partner dose 2 µM), with 597%; and `CCCS(=O)(=O)Nc1ccc(F)c(C(=O)c2c[nH]c3ncc(Cl)cc23)c1F` + CN(NC(=O)CC(=O)NN(C)C(=S)c1ccccc1)C(=S)c1ccccc1 [STA4783] (first compound 0.08 µM, partner dose 0.006 µM), with 160%; and `O=C(O)[C@@H]1[O][Sb](=[O])([O][Sb]2(=[O])[O][C@H]([C@H](O)CO)[C@H](O)[C@H](C(=O)O)[O]2)[O][C@H]([C@H](O)CO)[C@@H]1O` (some centres undefined) [stibogluconate] + C[C@@H]1CCN(C(=O)CC#N)C[C@@H]1N(C)c1ncnc2[nH]ccc12 [CP690550] (first compound 2 µM, partner dose 1 µM), with 80.4%.
Take `C=C(c1ccc(C(=O)O)cc1)c1cc2c(cc1C)C(C)(C)CCC2(C)C` [Bexarotene] + Cc1ccc(NC(=O)c2cccc(N(C)C)c2)cc1NC(=O)c1ccc(O)cc1 [ZM336372] (first compound 2 µM, partner dose 2 µM): the “cleaved PARP positive nuclei fraction” value was 80.9%.
`Cc1cc(Nc2cc(N3CCN(C)CC3)nc(/C=C/c3ccccc3)n2)n[nH]1` + CO[C@@H]1[C@H](N(C)C(=O)c2ccccc2)C[C@H]2O[C@]1(C)n1c3ccccc3c3c4c(c5c6ccccc6n2c5c31)C(=O)NC4 [Midostaurin] (first compound 0.04 µM, partner dose 0.08 µM): the “cleaved PARP positive nuclei fraction” value was 66%.

Another experiment has as its system A2058. The description is as above. The note with it: library dose: low library concentration; 72 h.
Take `Nc1ncn([C@H]2C[C@H](O)[C@@H](CO)O2)c(=O)n1` [decitabine] + Cc1cc(N2CCOCC2)cc2[nH]c(-c3c(NC[C@@H](O)c4cccc(Cl)c4)cc[nH]c3=O)nc12 [BMS536924] (first compound 0.1 µM, partner dose 0.2 µM): the “cleaved PARP positive nuclei fraction” value came out at 204%.
The same measure, in the same setting: then `Cn1c(=O)n(-c2ccc(C(C)(C)C#N)cc2)c2c3cc(-c4cnc5ccccc5c4)ccc3ncc21` + NCC(=O)Nc1ccc(-n2nc(C(F)(F)F)cc2-c2ccc3c(ccc4ccccc43)c2)cc1 [OSU03012] (first compound 0.004 µM, partner dose 1 µM), with 143%; and `CS(=O)(=O)CCNCc1ccc(-c2ccc3ncnc(Nc4ccc(OCc5cccc(F)c5)c(Cl)c4)c3c2)o1` [lapatinib] + O=C(Nc1cccc(Cl)c1)Nc1ncc(CCNc2ncnc3ccsc23)s1 [SNS314] (first compound 0.8 µM, partner dose 0.0008 µM), with 90%.
In the case of `CN1CCN(c2ccc3nc(-c4c(N)c5c(F)cccc5[nH]c4=O)[nH]c3c2)CC1` [Dovitinib] + CN(C)S(=O)(=O)c1ccc2c(c1)/C(=C/c1cc3c([nH]1)CCCC3)C(=O)N2 [SU6656] (first compound 0.1 µM, partner dose 0.4 µM), the “cleaved PARP positive nuclei fraction” value came to 285%.
Same read-out and setting: in the case of `C[C@@H](Oc1cc(-c2cnn(C3CCNCC3)c2)cnc1N)c1c(Cl)ccc(F)c1Cl` [Crizotinib] + Cn1cncc1[C@@](N)(c1ccc(Cl)cc1)c1ccc2c(c1)c(-c1cccc(Cl)c1)cc(=O)n2C [tipifarnib] (first compound 0.2 µM, partner dose 0.01 µM) it was 87.8%; in that of `CO[C@H]1C[C@@H]2CC[C@@H](C)[C@@](O)(O2)C(=O)C(=O)N2CCCC[C@H]2C(=O)O[C@H]([C@H](C)C[C@@H]2CC[C@@H](OCCO)[C@H](OC)C2)CC(=O)[C@H](C)/C=C(\C)[C@@H](O)[C@@H](OC)C(=O)[C@H](C)C[C@H](C)/C=C/C=C/C=C/1C` [everolimus] + O=C(Nc1cccc(Cl)c1)Nc1ncc(CCNc2ncnc3ccsc23)s1 [SNS314] (first compound 0.02 µM, partner dose 0.0008 µM), 102%.
`O=C(O)c1ccc2c(c1)nc(Nc1cccc(Cl)c1)c1ccncc12` + NC(=O)Nc1cc(-c2cccc(F)c2)sc1C(=O)N[C@H]1CCCNC1 [AZD7762] (first compound 0.4 µM, partner dose 0.02 µM): the “cleaved PARP positive nuclei fraction” value worked out at 74.5%.
On to `Cn1c(=O)n(-c2ccc(C(C)(C)C#N)cc2)c2c3cc(-c4cnc5ccccc5c4)ccc3ncc21` + O=C(O)c1ccc(-c2c[nH]c3ncc(-c4ccccc4)cc23)cc1C1CCCC1 [GSK650394] (first compound 0.004 µM, partner dose 0.16 µM), for which the “cleaved PARP positive nuclei fraction” value was 202%.
Same read-out and setting: in the case of `O=C(O)c1ccc2c(c1)nc(Nc1cccc(Cl)c1)c1ccncc12` + O=C(O)c1ccc(-c2c[nH]c3ncc(-c4ccccc4)cc23)cc1C1CCCC1 [GSK650394] (first compound 0.4 µM, partner dose 0.16 µM) it was 169%.
In the case of `CC(C)C[C@H](NC(=O)[C@H](Cc1ccccc1)NC(=O)c1cnccn1)B(O)O` [Bortezomib] + O=C(CCCCCCC(=O)Nc1ccccc1)NO [vorinostat] (first compound 0.001 µM, partner dose 0.08 µM), the “cleaved PARP positive nuclei fraction” value was 84.3%.
The same measure, in the same setting: in the case of `O=C(O)c1ccc2c(c1)nc(Nc1cccc(Cl)c1)c1ccncc12` + O=C(Nc1cccc(Cl)c1)Nc1ncc(CCNc2ncnc3ccsc23)s1 [SNS314] (first compound 0.4 µM, partner dose 0.0008 µM) it was 171%.
The same measure, in the same setting: then `Nc1nc(F)nc2c1ncn2[C@@H]1O[C@H](CO)[C@@H](O)[C@@H]1O` [fludarabine] + C=CCn1c(=O)c2cnc(Nc3ccc(N4CCN(C)CC4)cc3)nc2n1-c1cccc(C(C)(C)O)n1 [MK1775] (first compound 0.2 µM, partner dose 0.02 µM), with 117%; and `Nc1ccn([C@@H]2O[C@H](CO)[C@@H](O)C2(F)F)c(=O)n1` [gemcitabine] + COc1cc(Nc2ncc(F)c(Nc3ccc4c(n3)NC(=O)C(C)(C)O4)n2)cc(OC)c1OC [Tamatinib] (first compound 0.0004 µM, partner dose 0.4 µM), with 54.7%; and `Cn1c(=O)n(-c2ccc(C(C)(C)C#N)cc2)c2c3cc(-c4cnc5ccccc5c4)ccc3ncc21` + COc1cc2c(Oc3ccc4[nH]c(C)cc4c3F)ncnc2cc1OCCCN1CCCC1 [cediranib] (first compound 0.004 µM, partner dose 0.4 µM), with 74.4%.
Still for that read-out and setting: in the case of `Cc1cc(Nc2cc(N3CCN(C)CC3)nc(/C=C/c3ccccc3)n2)n[nH]1` + NC(=O)Nc1cc(-c2cccc(F)c2)sc1C(=O)N[C@H]1CCCNC1 [AZD7762] (first compound 0.04 µM, partner dose 0.02 µM) it was 131%; in that of `Nc1nc(F)nc2c1ncn2[C@@H]1O[C@H](CO)[C@@H](O)[C@@H]1O` [fludarabine] + O=C(Nc1cccc(Cl)c1)Nc1ncc(CCNc2ncnc3ccsc23)s1 [SNS314] (first compound 0.2 µM, partner dose 0.0008 µM), 62%; in that of `CS(=O)(=O)CCNCc1ccc(-c2ccc3ncnc(Nc4ccc(OCc5cccc(F)c5)c(Cl)c4)c3c2)o1` [lapatinib] + CN(NC(=O)CC(=O)NN(C)C(=S)c1ccccc1)C(=S)c1ccccc1 [STA4783] (first compound 0.8 µM, partner dose 0.006 µM), 196%.
Take `CC(C)C[C@H](NC(=O)[C@H](Cc1ccccc1)NC(=O)c1cnccn1)B(O)O` [Bortezomib] + CO[C@@H]1[C@H](N(C)C(=O)c2ccccc2)C[C@H]2O[C@]1(C)n1c3ccccc3c3c4c(c5c6ccccc6n2c5c31)C(=O)NC4 [Midostaurin] (first compound 0.001 µM, partner dose 0.08 µM): the “cleaved PARP positive nuclei fraction” value came to 156%.

For the origin of these results see the supplement of paper PMC4604168 (melanoma cell lines).
